# The supplement of paper PMC10735217
# The other results are listed elsewhere or left out. Repeats in this data set agree poorly, so a single value says little.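 The human kidney-derived cells carry a stably integrated construct of eight TEAD-binding elements driving luciferase, read by luminescence in a drug-repurposing library screen. A compound counts as a hit when its signal is more than five robust Z scores above the plate mean.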
# Tested on: HEK293A TEAD-LUC reporter
# Assay: TEAD-luciferase reporter activity (YAP activation), robust Z score vs plate; higher = stronger YAP/TEAD activation
# Conditions: 24 h
SMILES,TEAD-luciferase reporter activity (compound concentration: 200 nM),TEAD-luciferase reporter activity (compound concentration: 2 uM),TEAD-luciferase reporter activity (compound concentration: 10 uM)
COc1ccc(C(=O)/C(Cc2cccc(N(C)C)c2)=C(\C(=O)[O-])c2ccc3c(c2)OCO3)cc1,inactive: -2.19,inactive: -1.09,inactive: -0.494
C=C(CC(=O)c1ccc(-c2ccccc2Cl)cc1)C(=O)O,inactive: 0.422,inactive: -0.43,inactive: 0.0284
CCN(CC)C(=O)c1cccnc1 [Theramune],inactive: -0.759,inactive: 0.225,inactive: -0.104
CC1(C)NC(=O)N(c2ccc([N+](=O)[O-])c(C(F)(F)F)c2)C1=O [nilutamide],inactive: -0.424,inactive: 1.18,inactive: 1.95
Nc1nc(=O)c2c([nH]1)NCC(CNc1ccc(C(=O)N[C@@H](CCC(=O)O)C(=O)O)cc1)N2C=O (some centres undefined) [Leucovorin Calcium],inactive: -0.245,,inactive: 1.7
NC1=NC2(CCc3cccc(Cl)c3C2)CO1 (centres undefined),inactive: -0.469,inactive: -0.0624,inactive: 1.6
O=C1NCc2ccccc2CC12CCCN2Cc1ccccc1Br (centres undefined),inactive: -2.55,,active: 12.2
CCc1ccc(CN2CCCC23Cc2ccccc2CNC3=O)cc1 (centres undefined),inactive: 1.66,,inactive: 0.526
C/C(=C\c1ccc(OCCN2CCOCC2)cc1)c1ccc2c(c1)C(C)(C)CCC2(C)C [Mofarotene],inactive: 0.828,inactive: -1.04,inactive: -1.1
CC(C)CCC[C@@H](C)[C@H]1CC[C@H]2[C@@H]3CCC4(OCCO4)[C@](C)(CCCO)[C@H]3CC[C@]12C,inactive: -1.06,inactive: -0.241,inactive: -1.02
O=C(C1CCCN1C(=O)c1cccc(Cl)c1)N1CCC(c2ccccc2)CC1 (centres undefined),inactive: -0.431,,inactive: -1.48
CC(=O)COC(=O)/C=C(C)/C=C/C=C(C)/C=C/C1=C(C)CCCC1(C)C,inactive: -1.86,inactive: 0.746,inactive: -0.984
CNC(=O)Nc1c(OCCN2CCCCC2)c(OC)c2occc2c1OC [murocainide],inactive: -0.93,inactive: 0.00103,inactive: -0.942
C[C@H](NC(=O)Cc1ccccc1)C(=O)Nc1ccc(C2S/C(=N\c3cccc(F)c3)N(Cc3ccco3)C2=O)cc1 (some centres undefined),inactive: 4.12,inactive: -0.528,inactive: 0.596
CO/N=C(/C(=O)N[C@@H]1C(=O)N2C(C(=O)O)=C(CSc3nnnn3C)CS[C@H]12)c1csc(N)n1 [cefmenoxime],inactive: -0.263,inactive: -2.18,inactive: 2.25
COc1ccc2c(N3CCc4ccccc4C3)ncnc2c1,inactive: -0.247,inactive: 3.2,inactive: 3.64
NCCCCC(NC(CCc1ccccc1)C(=O)O)C(=O)N1CCCC1C(=O)O (centres undefined) [lisinopril],inactive: -0.665,,inactive: 1.5
FC(F)(F)c1ccc(/C=C/c2nc(COc3ccc(CCCCn4ccnn4)cc3)co2)cc1 [Mubritinib],,inactive: -2.2,

# Some of the entries so far, with tabs:
SMILES	TEAD-luciferase reporter activity (compound concentration: 200 nM)	TEAD-luciferase reporter activity (compound concentration: 2 uM)	TEAD-luciferase reporter activity (compound concentration: 10 uM)
O=C(C1CCCN1C(=O)c1cccc(Cl)c1)N1CCC(c2ccccc2)CC1 (centres undefined)	inactive: -0.431		inactive: -1.48
CC(=O)COC(=O)/C=C(C)/C=C/C=C(C)/C=C/C1=C(C)CCCC1(C)C	inactive: -1.86	inactive: 0.746	inactive: -0.984
CNC(=O)Nc1c(OCCN2CCCCC2)c(OC)c2occc2c1OC [murocainide]	inactive: -0.93	inactive: 0.00103	inactive: -0.942

# (cont.)

SMILES,TEAD-luciferase reporter activity (compound concentration: 200 nM),TEAD-luciferase reporter activity (compound concentration: 2 uM),TEAD-luciferase reporter activity (compound concentration: 10 uM)
FC(F)(F)c1ccc(/C=C/c2nc(COc3ccc(CCCCn4ccnn4)cc3)co2)cc1 [Mubritinib (TAK 165)],inactive: -1.05,,inactive: -2.04
CN1C2CCCC1CC(NC(=O)c1n[nH]c3ccccc13)C2 (centres undefined) [Granisetron impurity B],,inactive: -2.34,
CC(=O)O[C@@]12CO[C@@H]1C[C@H](O)[C@@]1(C)C(=O)[C@H](O)C3=C(C)[C@@H](OC(=O)[C@H](O)[C@@H](NC(=O)OC(C)(C)C)c4ccccc4)C[C@@](O)([C@@H](OC(=O)c4ccccc4)C12)C3(C)C (some centres undefined) [Docetaxel],inactive: -1.82,inactive: -0.502,inactive: 1.23
CCC(=O)O[C@@H](O[P@](=O)(CCCCc1ccccc1)CC(=O)N1C[C@H](C2CCCCC2)C[C@H]1C(=O)[O-])C(C)C [fosinopril],,,inactive: 1.19
CCC(C)(Oc1ccc(Cc2ccc(Cl)cc2)cc1)C(=O)OCc1cccnc1 (centres undefined),inactive: -0.417,inactive: -1.55,inactive: -0.71
CCOC1(C2=NCCN2)COc2ccccc2O1 (centres undefined) [Ethoxy-idazoxan],inactive: -0.724,inactive: -1.1,inactive: -0.0282
Oc1ncc(F)c(O)n1 [5-fluorouracil SR],,inactive: -1.33,
Oc1ncc(F)c(O)n1 [5-Fluorouracil],inactive: 0.296,,inactive: -0.878
COc1cc(OC)c2c(O)c3c(c(-c4c5c(c(O)c6c(OC)cc(OC)cc46)CO[C@@H](C)[C@H]5O)c2c1)[C@H](O)[C@H](C)OC3,inactive: -1.87,inactive: -1.3,inactive: 2.6
Cc1nn(C)c2nc(NNC(=O)Nc3cc(Cl)nc(Cl)c3)cc(C(C)C)c12,inactive: 0.388,inactive: -0.287,inactive: -1.81
OC[C@H]1O[C@@H](S[C@@H]2O[C@H](CO)[C@H](O)[C@H](n3cc(-c4cccc(F)c4)nn3)[C@H]2O)[C@H](O)[C@@H](n2cc(-c3cccc(F)c3)nn2)[C@H]1O,inactive: 3.15,inactive: -0.571,active: 13.5
CN(C)c1ncnc2c1ncn2C1OC(CO)C(O)C1O (centres undefined),inactive: -1.3,inactive: 0.391,inactive: -0.852
CCOc1c(N2CCOCC2)cnn(C)c1=O [emorfazone],inactive: -1.17,inactive: -0.891,inactive: 2.26
O=C(O)Cc1cccc2c1Cc1c-2[nH]c(=O)c2nc(C(=O)O)cn12,inactive: 0.305,inactive: -0.0627,inactive: 0.597
COCC(=O)NC1CCCN(c2nc3ncccc3o2)C1 (centres undefined),inactive: 1.54,,inactive: 0.836
COC(=O)C1=C(C)NC(C)=C(C(=O)OCCCCNC[C@@H](O)COc2ccccc2)C1c1cccc([N+](=O)[O-])c1 (some centres undefined),inactive: -0.768,inactive: -0.869,inactive: -0.35
CCc1oc2cc(S(=O)(=O)N(C)C)ccc2c1C(=O)c1cc(Br)c(O)c(Br)c1,inactive: -0.782,inactive: -1.13,inactive: -1.79
